PubChem BioAssay AID1259254 | NCATS, 2017
Purpose: 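Finding genes that stop cells copying their DNA twice in one cycle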 (primary screen). Cell system: human HCT116 colorectal cancer cells. Knock-down reagent: single siRNA against human genes. Duration: 3 days. Measurement: 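Nuclei stained with Hoechst and imaged; cell-cycle phase assigned by DNA content; G2 share scaled per plate, non-targeting siRNA 0%, GMNN siRNA 100%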. Direction: G2 robust z-score: higher = more G2 cells, more excess DNA replication. Hit rule: 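An siRNA counts as active if its G2 robust z-score lies at least 5 MADs above the screen median; here such calls match roughly 38% of GMNN control or more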.
The whole screen tested about 59,000 reagents; this is a random part of them. Of all reagents, about 1,550 (2.6%) got an active call. 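G2 share is only a proxy for re-replication; each gene was hit by three separate siRNAs, and active genes were retested.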 Unmarked entries are inactive. Reagents against one gene are numbered here. Not all columns of the deposit are shown. The record does not give: the amount of reagent.

target gene,siRNA no.,G2 robust z-score
COBL,1,0.172
COBL,2,0.929
COBL,3,0.181
NADK2,1,-0.428
NADK2,2,0.0291
NADK2,3,-0.765
CRISPLD1,1,3.1
CRISPLD1,2,0.265
CRISPLD1,3,0.0132
GATA3,1,-0.193
GATA3,2,1.62
GATA3,3,-0.294

Looked up above:
For “G2 robust z-score”, GATA3 #3 shows -0.294
Under “G2 robust z-score”, COBL #3 shows 0.181
Entry for CRISPLD1 #2 under “G2 robust z-score”: 0.265
Result of CRISPLD1 #1 under “G2 robust z-score”: 3.1

The listing continues.
target gene,siRNA no.,G2 robust z-score
PSMB1,1,1.72
PSMB1,2,1.77
PSMB1,3,5.08 (active)
CELF6,1,8.33 (active)
CELF6,2,-0.954
CELF6,3,-0.983
IER3,1,-1
IER3,2,1.04
IER3,3,-0.423
DNAAF19,1,0.54
DNAAF19,2,0.545
DNAAF19,3,-0.386
TIGD3,1,-0.681
TIGD3,2,4.64
TIGD3,3,-0.0712
RBFA,1,-0.736
RBFA,2,2.29
RBFA,3,0.595
